Reference: PMC3667747
Residue numbers refer to the chain shown, from its start. Results are given in words; binding and its absence hold for the method and conditions named. Binding seen in cells or lysates may run through a third protein. For some assays here: A result given as binding can be weak or reduced; the word gives no strength. Tags and fused reporters may be left off the sequences shown.

Columns and labels:
[1] = biological target: T1, VPS45-GFP (BEN2 / AtVPS45, VACUOLAR PROTEIN SORTING 45, wild type, fused to GFP) (Arabidopsis thaliana) (UniProt O49048); assay: co-IP; VPS45-GFP or VPS45D129N-GFP immunoprecipitated with anti-GFP antibody (micro-MACS GFP-tagged protein isolation kit) from detergent extracts of 12 day-old A. thaliana plantlets (0.5 g); immunoblot with anti-SYP4 and anti-GFP
T1 sequence: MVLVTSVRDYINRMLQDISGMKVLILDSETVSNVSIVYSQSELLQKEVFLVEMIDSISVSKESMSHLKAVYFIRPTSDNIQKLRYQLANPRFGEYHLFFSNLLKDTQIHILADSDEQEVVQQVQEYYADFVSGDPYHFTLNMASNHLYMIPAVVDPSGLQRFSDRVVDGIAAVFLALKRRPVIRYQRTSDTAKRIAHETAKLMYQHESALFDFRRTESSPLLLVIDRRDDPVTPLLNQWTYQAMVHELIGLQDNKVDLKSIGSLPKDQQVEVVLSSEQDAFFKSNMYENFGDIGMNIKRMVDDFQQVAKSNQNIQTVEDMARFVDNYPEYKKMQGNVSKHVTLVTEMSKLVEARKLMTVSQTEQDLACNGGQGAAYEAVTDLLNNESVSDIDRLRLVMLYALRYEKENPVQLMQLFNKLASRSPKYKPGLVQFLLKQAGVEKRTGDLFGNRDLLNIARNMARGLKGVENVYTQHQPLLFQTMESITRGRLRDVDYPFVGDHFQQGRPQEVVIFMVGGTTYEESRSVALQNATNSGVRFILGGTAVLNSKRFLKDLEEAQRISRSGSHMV

[2] = biological target: T2, VPS45D129N-GFP (VPS45-GFP carrying the ben2 mutant sequence) (Arabidopsis thaliana) (UniProt O49048); assay: as above
T2 sequence: T1 sequence with D129N

TGN-localized Qa-SNARE SYP4
binding [1]: binds
binding [2]: no binding
